Measured values as given in publication PMC7904954.
These are yes or no findings as the source states them, for the method shown. In cells and extracts the contact can be indirect. Some results given as binding are weak or reduced against the parent protein; the word gives no strength. Sequences can lack the tags named with a protein.

Target: T1, mNeonGreen-mPtpn1 (PTP1B) (mouse) (UniProt P35821)
T1 sequence: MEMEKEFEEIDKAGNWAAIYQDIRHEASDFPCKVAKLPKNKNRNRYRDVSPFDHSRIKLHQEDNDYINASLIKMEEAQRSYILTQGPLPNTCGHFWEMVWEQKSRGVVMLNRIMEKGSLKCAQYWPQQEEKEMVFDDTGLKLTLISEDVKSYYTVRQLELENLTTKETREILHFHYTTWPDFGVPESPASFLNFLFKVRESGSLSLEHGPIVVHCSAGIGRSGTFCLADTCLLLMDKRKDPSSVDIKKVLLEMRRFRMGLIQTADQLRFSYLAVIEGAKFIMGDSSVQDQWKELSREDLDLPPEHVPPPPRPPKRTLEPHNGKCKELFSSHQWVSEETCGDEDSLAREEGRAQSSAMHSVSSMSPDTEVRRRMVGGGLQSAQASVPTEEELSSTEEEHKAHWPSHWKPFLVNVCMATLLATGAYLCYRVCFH
Test: co-IP; anti-mNeonGreen antibody-bound magnetic beads (Dynabeads Co-Immunoprecipitation Kit) on lysates of WT mouse astrocytes co-infected with Ad-CMV-mNeonGreen-mPtpn1 and Ad-CMV-RFP-mCryba1; western blot for βA3/A1-crystallin in the eluent; mouse IgG beads as control

binding: binds
B1: βA3/A1-crystallin (overexpressed from Ad-CMV-RFP-mCryba1) (protein, UniProt P02525 1-198)
chain: MLYLVLFLVPFNSIQITIYDQENFQGKRMEFTSSCPNVSERNFDNVRSLKVECGAWIGYEHTSFCGQQFILERGEYPRWDAWSGSNAYHIERLMSFRPICSANHKESKITIFEKENFIGRQWEICDDYPSLQAMGWFNNEVGSMKIQCGAWVCYQYPGYRGYQYILECDHHGGDYKHWPEWGSHAQTSQIQSIRRIQQ
